Literature values, collected in US11331310B2, “Method of treating cocaine addiction” (MyMD Pharmaceuticals (Florida), Inc., priority 2015, dated 2022).
At least one compound was matched to its structure with a doubt left.

Test system: MPTP-induced toxicity
Settings: mice, cited from earlier work

Compound: NN [hydrazine]
- dopamine levels (MPTP): no significant effect
- decrease in dopamine metabolite levels induced by MPTP: prevented the decrease
